Results are given in words; binding and its absence hold for the method and conditions named.
Biological target: T1, SERK3 cytoplasmic domain (residues 250-615) (A. thaliana) (UniProt Q94F62)
T1 sequence: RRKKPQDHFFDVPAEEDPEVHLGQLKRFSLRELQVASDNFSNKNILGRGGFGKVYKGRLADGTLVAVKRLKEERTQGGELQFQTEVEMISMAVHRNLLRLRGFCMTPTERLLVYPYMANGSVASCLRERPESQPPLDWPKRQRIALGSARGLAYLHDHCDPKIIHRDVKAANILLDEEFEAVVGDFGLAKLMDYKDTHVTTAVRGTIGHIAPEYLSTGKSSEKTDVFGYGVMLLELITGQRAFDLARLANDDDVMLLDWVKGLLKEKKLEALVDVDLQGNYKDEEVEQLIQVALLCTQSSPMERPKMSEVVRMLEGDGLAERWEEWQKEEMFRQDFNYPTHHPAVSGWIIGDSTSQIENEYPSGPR
Assay: condition: ~200 uM injected into ~20 uM SERK3 kinase domain

## BIR2 cytosolic domain (A. thaliana) (domain or fragment)
  binding: no binding

Reference: publication doi:10.1101/257543 (bioRxiv, 2018)
